PubChem BioAssay AID1259424 | University of Nebraska Medical Center | 2018

Aim: 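Rank knockdowns across the genome by resemblance to the KSR1 depletion profile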 (primary screen)
Cells: human HCT116 colon cancer cells
Knock-down reagent: siRNA pool against human genes, 50 nM
Measurement: 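Six signature mRNAs by branched-DNA multiplex assay, scaled to two housekeeping genes and non-targeting median, log2; matched to mean KSR1 knockdown profile by Pearson correlation and euclidean distance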
Reading the numbers: mean correlation with KSR1 profile and KSR1 correlation: higher = expression change more like KSR1 knockdown; mean distance from KSR1 profile: higher = expression change less like KSR1 knockdown
In all, the deposit lists about 14,000 reagents; shown is a part drawn at random. 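Higher correlation or smaller distance means closer resemblance to KSR1 loss; control wells, including KSR1 knockdowns, recur on many plates.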 Not all columns of the deposit are shown. Reagent sequences are not shown. The record does not give: the time to read-out.

The first 4 records, to show the layout:
| gene knocked down | mean correlation with KSR1 profile | mean distance from KSR1 profile | KSR1 correlation, replicate 1 |
| --- | --- | --- | --- |
| FZD1 (frizzled class receptor 1) | 0.784 | 1.68 | 0.731 |
| ZNF397 (zinc finger protein 397) | 0.839 | 0.772 | 0.777 |
| CROT (carnitine O-octanoyltransferase) | 0.169 | 2.95 | 0.113 |
| ELP2 (elongator acetyltransferase complex subunit 2) | -0.451 | 2.14 | -0.44 |

Main list, repeating the preview:
| gene knocked down | mean correlation with KSR1 profile | mean distance from KSR1 profile | KSR1 correlation, replicate 1 |
| --- | --- | --- | --- |
| FZD1 (frizzled class receptor 1) | 0.784 | 1.68 | 0.731 |
| ZNF397 (zinc finger protein 397) | 0.839 | 0.772 | 0.777 |
| CROT (carnitine O-octanoyltransferase) | 0.169 | 2.95 | 0.113 |
| ELP2 (elongator acetyltransferase complex subunit 2) | -0.451 | 2.14 | -0.44 |
| BANK1 (B cell scaffold protein with ankyrin repeats 1) | -0.227 | 3.33 | -0.0927 |
| H1-1 (H1.1 linker histone, cluster member) | -0.372 | 4.98 | -0.33 |
| H4C6 (H4 clustered histone 6) | -0.183 | 1.71 | -0.244 |
| FGD6 (FYVE, RhoGEF and PH domain containing 6) | 0.271 | 1.41 | 0.434 |
| TRAPPC13 (trafficking protein particle complex subunit 13) | -0.0832 | 2.16 | -0.0988 |
| ABCE1 (ATP binding cassette subfamily E member 1) | -0.486 | 1.87 | -0.23 |
| CRLF3 (cytokine receptor like factor 3) | -0.221 | 2.37 | -0.179 |
| TSPAN13 (tetraspanin 13) | 0.0929 | 1.83 | 0.192 |
| CIDEA (cell death inducing DFFA like effector a) | 0.0107 | 2.49 | 0.204 |
| MCHR2 (melanin concentrating hormone receptor 2) | 0.691 | 1.47 | 0.596 |
| FEN1 (flap structure-specific endonuclease 1) | -0.169 | 3.58 | -0.19 |
| PRELID3B (PRELI domain containing 3B) | 0.263 | 1.38 | 0.337 |
| HHLA2 (HHLA2 member of B7 family) | -0.396 | 1.44 | -0.257 |
| SIGLEC1 (sialic acid binding Ig like lectin 1) | -0.292 | 3.68 | -0.12 |
| RPL18A (ribosomal protein L18a) | 0.433 | 3.18 | -0.0118 |
| SLC25A31 | 0.657 | 2.52 | 0.604 |
| HVCN1 (hydrogen voltage gated channel 1) | 0.252 | 1.89 | 0.103 |
| RHAG (Rh associated glycoprotein) | -0.669 | 2.22 | -0.558 |
| KLF12 (KLF transcription factor 12) | 0.466 | 1.74 | 0.645 |
| TIGD6 (tigger transposable element derived 6) | -0.241 | 2.8 | -0.31 |
| PRPF40A (pre-mRNA processing factor 40A) | -0.54 | 6.31 | -0.393 |
| BAZ2A (bromodomain adjacent to zinc finger domain 2A) | -0.105 | 1.14 | -0.294 |
| PPP6R3 (protein phosphatase 6 regulatory subunit 3) | -0.211 | 2.02 | -0.148 |
| ATM (ATM serine/threonine kinase) | 0.645 | 1.35 | 0.755 |
| TBX4 (T-box transcription factor 4) | 0.0392 | 1.72 | -0.105 |
| PPP2R3A (protein phosphatase 2 regulatory subunit B''alpha) | 0.177 | 1.85 | 0.127 |
| ACTR8 (actin related protein 8) | -0.267 | 1.76 | -0.225 |
| MAP3K5 (mitogen-activated protein kinase kinase kinase 5) | 0.102 | 1.82 | 0.221 |
| CMA1 (chymase 1) | -0.0385 | 2.75 | 0.193 |
| STRN4 (striatin 4) | 0.302 | 2.31 | 0.231 |
